Earlier results in PMC7053747 (PLoS ONE, 2020).

Target: mu opioid receptor
Details: cited from earlier work

In the case of COc1cccc(C2(O)CCCCC2CN(C)C)c1 (stereo not shown) [tramadol, reference compound], the Ki is listed as 12.5 µM.
